According to the supplement of paper PMC6411743:
± gives the standard deviation of the averaged measurements. The list shows a part of the results.

Protein sequences, listed by entry. Tags and fused reporters are not part of them. Lines headed by an entry give the natural chain unless they say otherwise; changes in a name come on top.
UniProt Q86UP2: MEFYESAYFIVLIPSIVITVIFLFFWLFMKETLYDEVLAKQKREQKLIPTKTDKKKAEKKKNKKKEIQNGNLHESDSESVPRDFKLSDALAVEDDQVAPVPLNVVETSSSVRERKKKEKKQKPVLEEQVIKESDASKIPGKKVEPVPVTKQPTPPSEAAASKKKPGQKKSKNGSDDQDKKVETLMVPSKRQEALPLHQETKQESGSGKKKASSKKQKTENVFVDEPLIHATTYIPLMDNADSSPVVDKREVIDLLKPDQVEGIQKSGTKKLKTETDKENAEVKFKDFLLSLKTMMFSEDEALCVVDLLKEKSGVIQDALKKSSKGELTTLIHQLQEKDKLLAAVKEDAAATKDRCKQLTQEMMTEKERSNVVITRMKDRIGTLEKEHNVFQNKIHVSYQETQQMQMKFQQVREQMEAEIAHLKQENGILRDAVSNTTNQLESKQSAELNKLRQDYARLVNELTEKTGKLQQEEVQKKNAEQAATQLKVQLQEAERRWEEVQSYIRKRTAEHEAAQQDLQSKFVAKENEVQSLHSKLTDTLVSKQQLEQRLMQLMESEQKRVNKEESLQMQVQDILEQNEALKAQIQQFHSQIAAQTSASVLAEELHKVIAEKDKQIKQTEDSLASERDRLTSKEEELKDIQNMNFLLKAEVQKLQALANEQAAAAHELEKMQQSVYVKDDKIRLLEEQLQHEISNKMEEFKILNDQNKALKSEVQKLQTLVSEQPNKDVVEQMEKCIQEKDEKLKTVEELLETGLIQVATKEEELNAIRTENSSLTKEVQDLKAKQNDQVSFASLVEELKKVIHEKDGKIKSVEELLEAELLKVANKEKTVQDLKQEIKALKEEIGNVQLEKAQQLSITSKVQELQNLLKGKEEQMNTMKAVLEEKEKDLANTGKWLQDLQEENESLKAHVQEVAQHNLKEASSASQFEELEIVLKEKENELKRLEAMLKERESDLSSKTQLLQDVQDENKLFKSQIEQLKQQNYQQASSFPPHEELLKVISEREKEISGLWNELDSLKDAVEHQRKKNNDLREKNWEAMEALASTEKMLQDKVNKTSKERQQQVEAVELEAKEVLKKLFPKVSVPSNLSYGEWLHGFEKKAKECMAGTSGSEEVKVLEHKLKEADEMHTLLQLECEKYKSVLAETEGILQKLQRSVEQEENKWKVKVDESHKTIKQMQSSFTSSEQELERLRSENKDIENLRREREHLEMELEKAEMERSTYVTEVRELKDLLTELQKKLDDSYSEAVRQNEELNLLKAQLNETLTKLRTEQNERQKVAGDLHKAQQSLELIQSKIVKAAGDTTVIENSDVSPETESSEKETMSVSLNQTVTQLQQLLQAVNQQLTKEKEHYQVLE
UniProt Q9NS91, whole entry: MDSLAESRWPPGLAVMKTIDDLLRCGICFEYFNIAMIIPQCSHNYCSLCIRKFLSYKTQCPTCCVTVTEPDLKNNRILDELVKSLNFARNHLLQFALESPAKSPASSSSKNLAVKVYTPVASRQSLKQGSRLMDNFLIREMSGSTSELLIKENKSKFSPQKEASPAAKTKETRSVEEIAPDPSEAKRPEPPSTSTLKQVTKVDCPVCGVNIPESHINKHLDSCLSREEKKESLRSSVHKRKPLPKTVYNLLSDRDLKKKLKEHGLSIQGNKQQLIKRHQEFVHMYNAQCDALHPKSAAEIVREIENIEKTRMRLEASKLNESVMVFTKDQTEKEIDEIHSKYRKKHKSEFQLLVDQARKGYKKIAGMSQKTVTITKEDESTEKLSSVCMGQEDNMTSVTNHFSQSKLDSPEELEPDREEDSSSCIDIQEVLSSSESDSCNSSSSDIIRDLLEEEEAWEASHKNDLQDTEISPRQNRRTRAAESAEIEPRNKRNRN
UniProt Q8TAV0: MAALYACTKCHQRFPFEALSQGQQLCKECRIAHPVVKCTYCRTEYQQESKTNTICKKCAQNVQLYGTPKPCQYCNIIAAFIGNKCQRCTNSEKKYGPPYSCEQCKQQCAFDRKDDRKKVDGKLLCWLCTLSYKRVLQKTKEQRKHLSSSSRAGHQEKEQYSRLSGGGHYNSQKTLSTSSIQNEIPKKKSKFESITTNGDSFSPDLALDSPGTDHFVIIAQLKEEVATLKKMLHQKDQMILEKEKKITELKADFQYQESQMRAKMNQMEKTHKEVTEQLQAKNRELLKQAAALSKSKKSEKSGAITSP
UniProt Q9UBU9: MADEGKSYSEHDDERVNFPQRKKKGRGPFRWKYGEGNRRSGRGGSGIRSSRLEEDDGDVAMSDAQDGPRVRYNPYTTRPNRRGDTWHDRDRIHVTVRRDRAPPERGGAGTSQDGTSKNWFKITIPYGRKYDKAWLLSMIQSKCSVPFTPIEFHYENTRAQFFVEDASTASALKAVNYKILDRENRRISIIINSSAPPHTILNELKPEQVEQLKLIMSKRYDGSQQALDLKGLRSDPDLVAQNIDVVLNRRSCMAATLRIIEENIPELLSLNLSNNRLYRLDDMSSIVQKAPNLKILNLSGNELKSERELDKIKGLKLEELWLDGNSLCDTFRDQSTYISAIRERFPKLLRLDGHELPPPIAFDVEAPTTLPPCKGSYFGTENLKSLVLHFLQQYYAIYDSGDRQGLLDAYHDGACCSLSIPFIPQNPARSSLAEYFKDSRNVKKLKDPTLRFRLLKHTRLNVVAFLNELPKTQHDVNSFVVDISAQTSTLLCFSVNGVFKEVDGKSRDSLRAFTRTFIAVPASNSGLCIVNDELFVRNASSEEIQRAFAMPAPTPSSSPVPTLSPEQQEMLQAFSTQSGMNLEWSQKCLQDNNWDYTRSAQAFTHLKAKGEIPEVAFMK
UniProt Q9Y520: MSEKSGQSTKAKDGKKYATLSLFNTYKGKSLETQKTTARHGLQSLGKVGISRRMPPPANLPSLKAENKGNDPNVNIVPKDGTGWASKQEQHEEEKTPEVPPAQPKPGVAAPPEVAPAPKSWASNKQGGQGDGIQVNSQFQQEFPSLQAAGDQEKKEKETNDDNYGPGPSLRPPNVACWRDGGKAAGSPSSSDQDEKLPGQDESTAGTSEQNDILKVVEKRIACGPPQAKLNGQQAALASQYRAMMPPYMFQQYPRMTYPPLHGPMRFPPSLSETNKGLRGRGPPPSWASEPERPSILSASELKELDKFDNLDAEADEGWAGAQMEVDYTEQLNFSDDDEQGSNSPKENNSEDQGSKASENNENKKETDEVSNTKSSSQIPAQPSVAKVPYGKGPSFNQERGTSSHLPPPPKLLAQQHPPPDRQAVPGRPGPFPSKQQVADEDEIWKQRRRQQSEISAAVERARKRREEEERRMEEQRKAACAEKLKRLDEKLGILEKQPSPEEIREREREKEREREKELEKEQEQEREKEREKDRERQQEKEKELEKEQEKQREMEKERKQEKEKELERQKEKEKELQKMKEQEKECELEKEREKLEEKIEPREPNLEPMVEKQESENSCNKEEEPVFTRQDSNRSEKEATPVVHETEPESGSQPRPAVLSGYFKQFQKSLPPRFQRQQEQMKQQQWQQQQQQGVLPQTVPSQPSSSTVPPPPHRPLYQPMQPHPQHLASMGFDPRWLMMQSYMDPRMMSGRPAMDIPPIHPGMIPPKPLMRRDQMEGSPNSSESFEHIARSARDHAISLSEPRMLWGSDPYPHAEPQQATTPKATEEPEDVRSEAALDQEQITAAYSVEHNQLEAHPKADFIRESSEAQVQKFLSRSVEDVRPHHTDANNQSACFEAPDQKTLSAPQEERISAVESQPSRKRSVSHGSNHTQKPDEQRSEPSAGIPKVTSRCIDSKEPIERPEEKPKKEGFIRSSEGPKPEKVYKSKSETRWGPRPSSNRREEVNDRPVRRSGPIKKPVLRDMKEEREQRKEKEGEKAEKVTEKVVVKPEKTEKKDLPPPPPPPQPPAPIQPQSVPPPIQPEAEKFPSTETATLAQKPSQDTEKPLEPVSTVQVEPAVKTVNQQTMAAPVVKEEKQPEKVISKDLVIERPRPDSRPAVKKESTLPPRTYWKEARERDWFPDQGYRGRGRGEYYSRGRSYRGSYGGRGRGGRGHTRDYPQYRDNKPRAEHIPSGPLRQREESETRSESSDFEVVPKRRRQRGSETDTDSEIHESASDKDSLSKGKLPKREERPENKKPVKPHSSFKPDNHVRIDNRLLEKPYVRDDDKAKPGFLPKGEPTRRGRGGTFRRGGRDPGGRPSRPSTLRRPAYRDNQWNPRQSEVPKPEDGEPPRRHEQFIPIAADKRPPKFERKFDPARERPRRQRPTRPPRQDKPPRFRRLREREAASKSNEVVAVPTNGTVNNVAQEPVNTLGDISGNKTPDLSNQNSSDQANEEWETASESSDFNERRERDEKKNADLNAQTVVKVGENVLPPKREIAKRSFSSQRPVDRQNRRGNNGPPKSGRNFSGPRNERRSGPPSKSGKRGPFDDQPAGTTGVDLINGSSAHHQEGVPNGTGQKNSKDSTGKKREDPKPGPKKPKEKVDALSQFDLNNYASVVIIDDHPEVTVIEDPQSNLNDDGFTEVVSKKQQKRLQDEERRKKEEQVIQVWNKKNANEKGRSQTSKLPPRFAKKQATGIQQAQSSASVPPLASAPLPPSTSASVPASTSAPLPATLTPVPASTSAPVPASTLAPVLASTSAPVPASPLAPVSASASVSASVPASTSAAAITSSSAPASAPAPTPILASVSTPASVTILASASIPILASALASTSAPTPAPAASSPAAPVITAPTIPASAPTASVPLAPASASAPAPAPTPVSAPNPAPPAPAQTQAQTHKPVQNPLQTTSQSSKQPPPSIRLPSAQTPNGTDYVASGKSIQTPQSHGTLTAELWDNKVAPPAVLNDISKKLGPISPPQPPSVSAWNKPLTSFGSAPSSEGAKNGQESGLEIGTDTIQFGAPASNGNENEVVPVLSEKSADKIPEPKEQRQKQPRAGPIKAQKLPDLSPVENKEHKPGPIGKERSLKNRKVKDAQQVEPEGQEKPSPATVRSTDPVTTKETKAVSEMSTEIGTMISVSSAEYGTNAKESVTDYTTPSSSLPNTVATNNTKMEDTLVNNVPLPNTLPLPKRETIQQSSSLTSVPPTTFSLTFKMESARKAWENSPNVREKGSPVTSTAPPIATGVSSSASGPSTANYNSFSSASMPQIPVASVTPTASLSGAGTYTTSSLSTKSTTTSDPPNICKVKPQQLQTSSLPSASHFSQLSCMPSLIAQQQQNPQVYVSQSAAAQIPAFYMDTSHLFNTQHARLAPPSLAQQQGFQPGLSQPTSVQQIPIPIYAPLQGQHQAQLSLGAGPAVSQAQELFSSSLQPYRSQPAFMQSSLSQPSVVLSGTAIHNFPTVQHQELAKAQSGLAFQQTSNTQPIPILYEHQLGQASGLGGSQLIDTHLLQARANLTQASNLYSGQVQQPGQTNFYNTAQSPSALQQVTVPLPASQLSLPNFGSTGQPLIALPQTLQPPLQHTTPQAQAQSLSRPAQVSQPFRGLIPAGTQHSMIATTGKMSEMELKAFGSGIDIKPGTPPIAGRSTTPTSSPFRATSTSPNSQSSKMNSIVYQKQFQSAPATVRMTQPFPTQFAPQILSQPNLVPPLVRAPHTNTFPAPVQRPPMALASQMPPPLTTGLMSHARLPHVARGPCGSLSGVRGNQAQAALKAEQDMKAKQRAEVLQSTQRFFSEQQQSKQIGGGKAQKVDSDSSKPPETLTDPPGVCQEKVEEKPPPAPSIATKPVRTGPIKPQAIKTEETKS
UniProt Q15366, whole entry: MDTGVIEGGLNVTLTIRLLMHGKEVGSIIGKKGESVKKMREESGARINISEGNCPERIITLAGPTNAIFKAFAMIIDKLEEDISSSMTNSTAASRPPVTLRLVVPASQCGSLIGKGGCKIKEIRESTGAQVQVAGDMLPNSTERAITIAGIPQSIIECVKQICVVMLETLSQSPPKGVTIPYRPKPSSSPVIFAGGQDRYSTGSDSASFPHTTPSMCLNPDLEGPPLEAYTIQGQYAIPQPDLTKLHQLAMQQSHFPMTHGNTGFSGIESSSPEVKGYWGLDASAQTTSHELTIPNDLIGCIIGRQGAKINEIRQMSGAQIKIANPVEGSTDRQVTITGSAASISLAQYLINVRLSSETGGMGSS
UniProt P62191: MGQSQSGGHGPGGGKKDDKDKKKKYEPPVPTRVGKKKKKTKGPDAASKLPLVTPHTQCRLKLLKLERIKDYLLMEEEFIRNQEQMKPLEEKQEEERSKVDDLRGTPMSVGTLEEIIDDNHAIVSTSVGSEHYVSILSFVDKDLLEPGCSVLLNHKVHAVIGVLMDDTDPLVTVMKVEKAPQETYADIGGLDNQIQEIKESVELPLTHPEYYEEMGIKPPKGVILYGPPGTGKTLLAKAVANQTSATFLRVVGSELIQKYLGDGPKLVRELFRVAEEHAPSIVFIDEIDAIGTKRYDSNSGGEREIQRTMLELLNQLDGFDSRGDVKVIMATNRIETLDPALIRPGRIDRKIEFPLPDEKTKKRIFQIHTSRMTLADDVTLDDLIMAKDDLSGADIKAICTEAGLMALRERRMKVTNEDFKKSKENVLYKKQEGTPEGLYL

Compound: Nc1nc2c(ncn2[C@@H]2O[C@H](COP(=O)(O)OP(=O)(O)OP(=O)(O)O)[C@@H](O)[C@H]2O)c(=O)[nH]1 [guanosine triphosphate]
Assay: NP40-soluble protein abundance relative to vehicle (solubility fold change) (ratio); higher = more soluble protein in presence of GTP
Procedure, shortened: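 Each value is a fold change relative to the detergent-processed vehicle, calculated per replicate from vsn-normalised intensities. Jurkat crude lysate received eight concentrations (0.1 to 10 mM) for 10 min at room temperature and 3 min at 37 °C, then was solubilised in 0.8% NP40 with benzonase (60 min, 4 °C). The ultracentrifuged supernatant was TMT-labelled and run by LC-MS/MS in three independent experiments.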

| Target | NP40-soluble protein abundance (concentration: 0.1mM) | NP40-soluble protein abundance (concentration: 0.5mM) | NP40-soluble protein abundance (concentration: 1mM) | NP40-soluble protein abundance (concentration: 2mM) | NP40-soluble protein abundance (concentration: 4mM) | NP40-soluble protein abundance (concentration: 6mM) | NP40-soluble protein abundance (concentration: 8mM) | NP40-soluble protein abundance (concentration: 10mM) |
| --- | --- | --- | --- | --- | --- | --- | --- | --- |
| F8W060 and related entries (UniProt Q9BZF1) | 0.969 ± 0.035 | 0.969 ± 0.025 | 0.954 ± 0.021 | 0.897 ± 0.025 | 0.9129 ± 0.0062 | 0.927 ± 0.037 | 0.986 ± 0.049 | 0.954 ± 0.033 |
| F8W9X7 and related entries (UniProt Q567U6) | 0.995 ± 0.033 | 1.01 ± 0.037 | 0.986 ± 0.036 | 0.979 ± 0.047 | 1 ± 0.026 | 0.986 ± 0.071 | 1.01 ± 0.074 | 0.984 ± 0.054 |
| G3V5P0 and related entries (UniProt Q86UP2) | 0.928 ± 0.055 | 0.922 ± 0.08 | 0.99 ± 0.048 | 0.956 ± 0.068 | 0.974 ± 0.054 | 0.98 ± 0.056 | 0.9931 ± 0.0024 | 1.02 ± 0.081 |
| E7EQA9 and related entries (UniProt Q92844) | 0.8259 ± 0.0064 | 0.837 ± 0.011 | 0.97 ± 0.071 | 0.92 ± 0.016 | 0.907 ± 0.041 | 0.909 ± 0.018 | 0.9225 ± 0.0083 | 0.991 ± 0.02 |
| F8W7C6 and related entries (UniProt P27635) | 0.997 ± 0.043 | 1 ± 0.083 | 1.03 ± 0.11 | 0.918 ± 0.1 | 0.886 ± 0.16 | 0.86 ± 0.12 | 0.787 ± 0.11 | 0.901 ± 0.13 |
| F8VV52 and related entries (UniProt Q9NZN8) | 1.04 ± 0.015 | 1.02 ± 0.045 | 1.16 ± 0.073 | 1.21 ± 0.047 | 1.31 ± 0.08 | 1.4 ± 0.14 | 1.43 ± 0.18 | 1.52 ± 0.22 |
| E7ETA6 and related entries (UniProt Q15154) | 0.976 ± 0.04 | 0.968 ± 0.046 | 1.01 ± 0.041 | 1.02 ± 0.052 | 1.04 ± 0.025 | 1.1 ± 0.063 | 1.13 ± 0.029 | 1.15 ± 0.044 |
| F8WE49 and related entries (UniProt Q9NS91) | 1.07 ± 0.021 | 1.07 ± 0.026 | 1.1 ± 0.052 | 1.12 ± 0.057 | 1.14 ± 0.044 | 1.14 ± 0.043 | 1.21 ± 0.17 | 1.18 ± 0.086 |
| F8WA39 and related entries (UniProt Q13613) | 1.02 ± 0.034 | 1.02 ± 0.063 | 0.963 ± 0.023 | 1.01 ± 0.042 | 1.02 ± 0.064 | 0.989 ± 0.068 | 1 ± 0.12 | 0.986 ± 0.086 |
| E9PAV3 and related entries (UniProt Q13765+H0YHX9+F8VZJ2+E9PAV3) | 0.858 ± 0.15 | 0.871 ± 0.15 | 0.852 ± 0.15 | 0.907 ± 0.15 | 0.912 ± 0.14 | 0.934 ± 0.16 | 0.899 ± 0.16 | 0.971 ± 0.15 |
| G3V1R7 and related entries (UniProt O14975) | 1.04 ± 0.073 | 1.06 ± 0.046 | 1.03 ± 0.12 | 1.03 ± 0.1 | 1.06 ± 0.043 | 0.991 ± 0.096 | 1.01 ± 0.058 | 1.03 ± 0.14 |
| F8VU90 and related entries (UniProt Q9NYL4) | 0.972 ± 0.06 | 0.968 ± 0.052 | 1.04 ± 0.018 | 1.03 ± 0.065 | 1.05 ± 0.033 | 0.996 ± 0.078 | 0.922 ± 0.041 | 0.995 ± 0.065 |
| F8WAZ6 and related entries (UniProt O75439) | 0.962 ± 0.048 | 0.964 ± 0.022 | 0.926 ± 0.03 | 0.908 ± 0.023 | 0.898 ± 0.013 | 0.889 ± 0.0093 | 0.884 ± 0.046 | 0.866 ± 0.044 |
| E9PP50 and related entries (UniProt P23528) | 0.893 ± 0.054 | 0.906 ± 0.066 | 0.894 ± 0.066 | 0.823 ± 0.076 | 0.819 ± 0.068 | 0.839 ± 0.078 | 0.84 ± 0.066 | 0.821 ± 0.081 |
| E9PQL1 and related entries (UniProt Q8TAV0) | 0.987 ± 0.025 | 1.02 ± 0.035 | 1.1 ± 0.096 | 1.1 ± 0.1 | 1.05 ± 0.12 | 1.05 ± 0.14 | 1.06 ± 0.14 | 1.09 ± 0.098 |
| E9PIN3 and related entries (UniProt Q9UBU9) | 1.05 ± 0.045 | 1.04 ± 0.051 | 1.03 ± 0.025 | 1.12 ± 0.064 | 1.25 ± 0.056 | 1.37 ± 0.064 | 1.43 ± 0.093 | 1.55 ± 0.1 |
| G5E953 and related entries (UniProt Q13615) | 1.01 ± 0.036 | 0.987 ± 0.04 | 0.978 ± 0.063 | 0.953 ± 0.034 | 0.976 ± 0.045 | 0.963 ± 0.065 | 1 ± 0.042 | 0.971 ± 0.028 |
| E9PCD7 and related entries (UniProt Q9Y2E5) | 0.9 ± 0.062 | 0.941 ± 0.02 | 1.01 ± 0.032 | 0.952 ± 0.039 | 0.991 ± 0.061 | 0.986 ± 0.04 | 0.984 ± 0.044 | 1.02 ± 0.074 |
| G3V2T4 and related entries (UniProt Q99538) | 0.917 ± 0.053 | 0.898 ± 0.047 | 0.949 ± 0.04 | 0.912 ± 0.033 | 0.871 ± 0.076 | 0.923 ± 0.085 | 0.916 ± 0.073 | 0.935 ± 0.035 |
| E7EPN9 and related entries (UniProt Q9Y520) | 1.01 ± 0.02 | 1.01 ± 0.054 | 1.1 ± 0.063 | 1.14 ± 0.073 | 1.24 ± 0.057 | 1.36 ± 0.075 | 1.53 ± 0.14 | 1.7 ± 0.2 |
| E9PQY3 and related entries (UniProt P11117) | 0.97 ± 0.12 | 0.861 ± 0.028 | 0.996 ± 0.052 | 1 ± 0.11 | 0.983 ± 0.073 | 0.968 ± 0.054 | 0.961 ± 0.026 | 0.977 ± 0.015 |
| F8VZX2 and related entries (UniProt Q15366) | 0.898 ± 0.042 | 0.901 ± 0.064 | 0.922 ± 0.062 | 0.909 ± 0.094 | 0.875 ± 0.085 | 0.89 ± 0.084 | 0.872 ± 0.08 | 0.877 ± 0.087 |
| E9PRF4 and related entries (UniProt Q15047) | 0.977 ± 0.12 | 0.93 ± 0.12 | 0.904 ± 0.055 | 0.909 ± 0.039 | 0.873 ± 0.04 | 0.881 ± 0.035 | 0.904 ± 0.051 | 0.862 ± 0.017 |
| F5H5U2 and related entries (UniProt Q8NHQ9) | 1.09 ± 0.053 | 1.08 ± 0.076 | 0.984 ± 0.043 | 1.08 ± 0.11 | 1.15 ± 0.098 | 1.17 ± 0.073 | 1.24 ± 0.053 | 1.33 ± 0.14 |
| G3V4X1 and related entries (UniProt P62191) | 0.989 ± 0.011 | 1.04 ± 0.054 | 1.04 ± 0.063 | 1.06 ± 0.09 | 1.07 ± 0.11 | 1.09 ± 0.13 | 1.1 ± 0.15 | 1.04 ± 0.15 |
| E9PLI6 and related entries (UniProt Q8N9N8) | 0.978 ± 0.032 | 0.971 ± 0.1 | 0.974 ± 0.061 | 0.931 ± 0.083 | 0.98 ± 0.12 | 0.902 ± 0.11 | 0.958 ± 0.08 | 0.948 ± 0.071 |

Shown as tab-separated lines: entries from further up
Target	NP40-soluble protein abundance (concentration: 0.1mM)	NP40-soluble protein abundance (concentration: 0.5mM)	NP40-soluble protein abundance (concentration: 1mM)	NP40-soluble protein abundance (concentration: 2mM)	NP40-soluble protein abundance (concentration: 4mM)	NP40-soluble protein abundance (concentration: 6mM)	NP40-soluble protein abundance (concentration: 8mM)	NP40-soluble protein abundance (concentration: 10mM)
F8W060 and related entries (UniProt Q9BZF1)	0.969 ± 0.035	0.969 ± 0.025	0.954 ± 0.021	0.897 ± 0.025	0.9129 ± 0.0062	0.927 ± 0.037	0.986 ± 0.049	0.954 ± 0.033
E7EQA9 and related entries (UniProt Q92844)	0.8259 ± 0.0064	0.837 ± 0.011	0.97 ± 0.071	0.92 ± 0.016	0.907 ± 0.041	0.909 ± 0.018	0.9225 ± 0.0083	0.991 ± 0.02
F8VV52 and related entries (UniProt Q9NZN8)	1.04 ± 0.015	1.02 ± 0.045	1.16 ± 0.073	1.21 ± 0.047	1.31 ± 0.08	1.4 ± 0.14	1.43 ± 0.18	1.52 ± 0.22
F8WE49 and related entries (UniProt Q9NS91)	1.07 ± 0.021	1.07 ± 0.026	1.1 ± 0.052	1.12 ± 0.057	1.14 ± 0.044	1.14 ± 0.043	1.21 ± 0.17	1.18 ± 0.086
F8WA39 and related entries (UniProt Q13613)	1.02 ± 0.034	1.02 ± 0.063	0.963 ± 0.023	1.01 ± 0.042	1.02 ± 0.064	0.989 ± 0.068	1 ± 0.12	0.986 ± 0.086
F5H5U2 and related entries (UniProt Q8NHQ9)	1.09 ± 0.053	1.08 ± 0.076	0.984 ± 0.043	1.08 ± 0.11	1.15 ± 0.098	1.17 ± 0.073	1.24 ± 0.053	1.33 ± 0.14
